PubChem BioAssay AID1259308, NCATS | 2017

Assay: 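Knock-downs that increase output of a recombinant reporter protein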 (primary screen)
Cell system: human HEK293 embryonic kidney cells stably expressing firefly luciferase (HEK-CMV-Luc2-Hygro)
Reagent: single siRNA against human genes, 0.8 pmol siRNA per well
Duration: 72 h
Measured: 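Luciferase light (ONE-Glo) measured on one replicate plate set and viability (CellTiter-Glo) on the other, scaled to a negative control siRNA, with robust z-scores and luciferase per cell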
Direction: total luciferase, z-score and total luciferase, % of control: higher = more reporter protein produced; luciferase per cell, z-score: higher = more reporter output per viable cell; viable cells, % of control: higher = more viable cells
Hit rule: 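Active when the median/MAD z-score for overall luciferase is greater than 3; a gene was taken forward for validation with new siRNAs if at least two of its three siRNAs passed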
Calls: active = raised luciferase; inactive = no rise
Here is one part, drawn at random, of about 59,000 reagents. About 1,510 of all reagents (2.6%) were called active. 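Calls use total luciferase alone and ignore viability, so some active siRNAs may act by altering cell number.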 Reagents against one gene are numbered here.

| Target gene | reagent no. | total luciferase, z-score | total luciferase, % of control | luciferase per cell, z-score | viable cells, % of control | Call |
| --- | --- | --- | --- | --- | --- | --- |
| LCN8 (lipocalin 8) | 1 | -0.254 | 76.8 | -0.145 | 89.2 | inactive |
| LCN8 (lipocalin 8) | 2 | -0.608 | 69.8 | -0.427 | 87.3 | inactive |
| LCN8 (lipocalin 8) | 3 | -0.215 | 77.6 | 0.165 | 83 | inactive |
| TARBP2 (TARBP2 subunit of RISC loading complex) | 1 | 1.43 | 110 | 1.39 | 85.5 | inactive |
| TARBP2 (TARBP2 subunit of RISC loading complex) | 2 | -0.552 | 70.9 | -0.419 | 88.5 | inactive |
| TARBP2 (TARBP2 subunit of RISC loading complex) | 3 | -1.39 | 54.2 | -1.21 | 83.4 | inactive |
| LINC02914 (long independently transcribed non-coding RNA 2914) | 1 | 1.12 | 104 | 0.837 | 93.4 | inactive |
| LINC02914 (long independently transcribed non-coding RNA 2914) | 2 | 1.95 | 121 | 2.63 | 67.4 | inactive |
| LINC02914 (long independently transcribed non-coding RNA 2914) | 3 | 0.218 | 86.2 | 0.0802 | 94.3 | inactive |
| PPIF (peptidylprolyl isomerase F) | 1 | -0.0662 | 80.6 | -0.508 | 103 | inactive |
| PPIF (peptidylprolyl isomerase F) | 2 | -0.92 | 63.6 | -0.626 | 83.8 | inactive |
| PPIF (peptidylprolyl isomerase F) | 3 | -0.12 | 79.5 | -0.541 | 102 | inactive |
| ZNF385B (zinc finger protein 385B) | 1 | 1.91 | 120 | 1.47 | 91.1 | inactive |
| ZNF385B (zinc finger protein 385B) | 2 | 0.408 | 90 | 0.501 | 88.1 | inactive |
| ZNF385B (zinc finger protein 385B) | 3 | 0.607 | 94 | 0.76 | 85.9 | inactive |
| SULT1A4 (sulfotransferase family 1A member 4) | 1 | 0.603 | 93.9 | 1.72 | 66.7 | inactive |
| SULT1A4 (sulfotransferase family 1A member 4) | 2 | -0.703 | 67.9 | 0.285 | 70.4 | inactive |
| SULT1A4 (sulfotransferase family 1A member 4) | 3 | 3.17 | 145 | 2.04 | 94.8 | active |
| DDX46 (DEAD-box helicase 46) | 1 | 2.23 | 126 | 1.13 | 105 | inactive |
| DDX46 (DEAD-box helicase 46) | 2 | 0.603 | 93.9 | 1.22 | 76.1 | inactive |
| DDX46 (DEAD-box helicase 46) | 3 | 0.623 | 94.3 | 0.756 | 86.3 | inactive |
| PPP3CC (protein phosphatase 3 catalytic subunit gamma) | 1 | -2.62 | 29.8 | -0.657 | 39.5 | inactive |
| PPP3CC (protein phosphatase 3 catalytic subunit gamma) | 2 | 1.35 | 109 | 1.2 | 88.5 | inactive |
| PPP3CC (protein phosphatase 3 catalytic subunit gamma) | 3 | -1.13 | 59.3 | -1.11 | 88.7 | inactive |
| TESC (tescalcin) | 1 | -1.68 | 48.4 | -1.44 | 79.1 | inactive |
| TESC (tescalcin) | 2 | 0.0584 | 83 | 0.913 | 73 | inactive |
| TESC (tescalcin) | 3 | -0.111 | 79.7 | 0.00997 | 88.8 | inactive |
| CPSF6 (cleavage and polyadenylation specific factor 6) | 1 | -0.711 | 67.7 | 0.653 | 63.7 | inactive |
| CPSF6 (cleavage and polyadenylation specific factor 6) | 2 | -0.52 | 71.5 | -0.596 | 93.5 | inactive |
| CPSF6 (cleavage and polyadenylation specific factor 6) | 3 | 0.393 | 89.7 | 0.00981 | 100 | inactive |
| RNF5 (ring finger protein 5) | 1 | 0.261 | 87.1 | 1.25 | 69.9 | inactive |
| RNF5 (ring finger protein 5) | 2 | 1.46 | 111 | 1.48 | 83.9 | inactive |
| RNF5 (ring finger protein 5) | 3 | 1.54 | 113 | 1.4 | 87 | inactive |
| PLA2G2F (phospholipase A2 group IIF) | 1 | -0.505 | 71.8 | -0.321 | 87.4 | inactive |
| PLA2G2F (phospholipase A2 group IIF) | 2 | 0.035 | 82.6 | -0.0913 | 94.5 | inactive |
| PLA2G2F (phospholipase A2 group IIF) | 3 | -0.259 | 76.7 | -0.75 | 104 | inactive |
| MBD6 (methyl-CpG binding domain protein 6) | 1 | -0.623 | 69.5 | 0.923 | 60.9 | inactive |
| MBD6 (methyl-CpG binding domain protein 6) | 2 | 3.41 | 150 | 2.25 | 92.5 | active |
| MBD6 (methyl-CpG binding domain protein 6) | 3 | 0.962 | 101 | 0.913 | 88.7 | inactive |
| ZNF709 (zinc finger protein 709) | 1 | 2.58 | 133 | 2.07 | 86.3 | inactive |
| ZNF709 (zinc finger protein 709) | 2 | 3.04 | 142 | 1.84 | 97.9 | active |
| ZNF709 (zinc finger protein 709) | 3 | 1.16 | 105 | 0.751 | 96.2 | inactive |
| SACK1E (scaffolding CK1 anchoring protein E) | 1 | 0.945 | 101 | 0.234 | 106 | inactive |
| SACK1E (scaffolding CK1 anchoring protein E) | 2 | -0.739 | 67.2 | -0.497 | 85.6 | inactive |
| SACK1E (scaffolding CK1 anchoring protein E) | 3 | 0.42 | 90.2 | -0.507 | 115 | inactive |
| LINC00242 (long independently transcribed non-coding RNA 242) | 1 | 0.577 | 93.4 | 0.589 | 89.3 | inactive |
| LINC00242 (long independently transcribed non-coding RNA 242) | 2 | -0.261 | 76.7 | -0.401 | 95.3 | inactive |
| LINC00242 (long independently transcribed non-coding RNA 242) | 3 | 1.25 | 107 | 1.79 | 74.3 | inactive |
| ZFR (zinc finger RNA binding protein) | 1 | 0.24 | 86.7 | 0.943 | 75.5 | inactive |
| ZFR (zinc finger RNA binding protein) | 2 | -0.00329 | 81.8 | -0.463 | 103 | inactive |
| ZFR (zinc finger RNA binding protein) | 3 | -0.731 | 67.4 | -0.533 | 86.6 | inactive |
| GJA9 (gap junction protein alpha 9) | 1 | 1.36 | 109 | 0.555 | 105 | inactive |
| GJA9 (gap junction protein alpha 9) | 2 | -0.805 | 65.9 | -1.2 | 101 | inactive |
| GJA9 (gap junction protein alpha 9) | 3 | -1.47 | 52.6 | -1.09 | 78.2 | inactive |
| DNAH7 (dynein axonemal heavy chain 7) | 1 | -0.577 | 70.4 | -0.554 | 91 | inactive |
| DNAH7 (dynein axonemal heavy chain 7) | 2 | 0.415 | 90.1 | -0.108 | 104 | inactive |
| DNAH7 (dynein axonemal heavy chain 7) | 3 | -0.494 | 72.1 | -0.237 | 85.7 | inactive |
